For at least one compound, name, drawing or mass did not settle the structure. Some of these results come from one statement about several compounds together.
Key:
[1] = In vitro release from 3D printed IVRs in simulated vaginal fluid (SVF); details: for duration of target release rates: EFdA/EE/ENG IVR, SVF (pH 4.2) 37 C, last time point analyzed
[2] = In vitro release from drug-loaded blocks or ring sections in simulated vaginal fluid (SVF); assay type: physicochemical; details: for Drug Release at Zero Order Mass/Day / Drug Release at Zero Order Percent/Day: linear regression from Day 2
[3] = Post-loading of SIL30 3D CLIP printed IVRs, loading equation; assay type: physicochemical; details: acetone as loading solvent, loading duration 24 hours
[4] = HPLC analysis of post-loading solutions; assay type: physicochemical
[5] = β-Estradiol content of pre-loaded SIL 30 resin
[6] = Drug loading of post-loaded SIL 30 diffusion blocks, solvent extraction and HPLC; assay type: physicochemical
Protocol: Loading. […] . Solutions of 5 mg/mL of drug in acetone were prepared and validated via HPLC. […] Blocks were then divided into an extraction set and a release set.
Extraction. Drug-loaded blocks were extracted using methods previously described in Section 2.6 using acetone as the extraction solvent. Aliquots were collected and analyzed with HPLC. Weight percent loading was determined as the total drug extracted relative to the mass of the dried blocks.
Block types 6.0 and 7.6 mm (n=8 of each type) were fabricated in SIL 30. A solution containing 8.562 mg/mL of 4′-ethynyl-2-fluoro-2′-deoxyadenosine (EFdA) in acetone was prepared and validated via HPLC. Blocks were batch immersed in post-loading solution for up to 24 hr. Blocks were divided into extraction (n=4) and release (n=4) sets. EFdA was extracted from blocks in acetone as previously described and quantified with HPLC. Release blocks were individually immersed in 60 mL of SVF and placed in an incubator at 37° C. Aliquots and analysis were completed using methods previously described. EFdA was quantified with HPLC, eluting at 5.31 min at 265 nm.
A test part described as a diffusion block with dimensions in X, Y, and Z of 10 mm, 20 mm, and 4 mm, respectively, was primarily used. The general flow of the post-loading process is outlined in FIG. 6A. The initial metrics of dimensional and mass measurements were taken for every block used prior to loading or testing. The block was then immersed in a post-loading solution containing a known concentration of the API for a specified duration. The part was removed and measured for swollen metrics. An aliquot of the post-loading solution following part removal was taken for HPLC analysis. The part was then dried in an oven to remove the post-loading solvent, after which the part was measured for dried metrics. These metrics serve as check points to precisely investigate part behavior throughout the post-loading process, specifically dimensional deformations. Once the part was post-loaded it can either be tested for total drug content via an extraction process, outlined in FIG. 6B, or tested for drug release in simulated vaginal fluid (SVF), outlined in FIG. 6C. Aliquots from both processes are taken for HPLC analysis.
. For these samples, metrics were taken and aliquots were analyzed via HPLC on a C18 column with an optimized method. Extraction aliquots and post-loading solution aliquots were diluted in acetonitrile (ACN) at 1:100 while release samples were analyzed as is. Extracted material includes both the incorporated drug (β-estradiol) as well as leachables/extractables. […] .
Blocks were further assessed by quantifying the extracted drug via HPLC. The total amount of drug extracted, weight percent loading and loading efficiency were calculated and averaged, with variation described by % RSD. Overall, a slight decrease in loading metrics was observed as a function of loading order. However, once averaged out, these values yielded minimal variability. Additionally, values shown are in-line with those obtained during the reproducibility study (Section 3.2) for methanol.
Both pre-loaded and post-loaded blocks were extracted in 20 mL of EtOH for 72 hours. Aliquots were taken and analyzed via HPLC. […] . […] Therefore, for the sake of consistency between previous results and subsequently prepared samples, loading values obtained in Round II were used for all calculations.

[7] = 4 mm SIL 30 block, 24 hr in super saturated Acetone, n = 3
[8] = 4 mm SIL 30 block, 24 hr in super saturated Isopropyl Acetate, n = 3
[9] = 4 mm SIL 30 block, 24 hr in super saturated Methanol, n = 3
[10] = block 0.59 ± 0.03 mm, loaded 5 mg/mL in acetone 24 hr
[11] = block 1.17 ± 0.05 mm, loaded 5 mg/mL in acetone 24 hr
[12] = block 2.23 ± 0.07 mm, loaded 5 mg/mL in acetone 24 hr
[13] = block 3.16 ± 0.06 mm, loaded 5 mg/mL in acetone 24 hr
[14] = block 4.18 ± 0.04 mm, loaded 5 mg/mL in acetone 24 hr
[15] = block 6.25 ± 0.08 mm, loaded 5 mg/mL in acetone 24 hr
[16] = block 7.80 ± 0.09 mm, loaded 5 mg/mL in acetone 24 hr
[17] = post-loaded (methanol) SIL 30 block type 0.5 mm
[18] = post-loaded (methanol) SIL 30 block type 1.0 mm
[19] = post-loaded (methanol) SIL 30 block type 2.0 mm
[20] = post-loaded (methanol) SIL 30 block type 3.0 mm
[21] = post-loaded (methanol) SIL 30 block type 4.0 mm
[22] = successive loading in methanol, Average ± Standard Deviation of 4 rounds
[23] = successive loading in methanol, Loading Round 1
[24] = successive loading in methanol, Loading Round 2
[25] = successive loading in methanol, Loading Round 3
[26] = successive loading in methanol, Loading Round 4

C#C[C@]1(CO)O[C@@H](n2cnc3c(N)nc(F)nc32)C[C@@H]1O [EFdA, 4′-ethynyl-2-fluoro-2′-deoxyadenosine]
duration of target release rates [1]: over 4 months

C[C@]12CC[C@@H]3c4ccc(O)cc4CC[C@H]3[C@@H]1CC[C@@H]2O [β-Estradiol, β-estradiol]
release profile ([2]; all post-loaded SIL 30 block types, SVF): linear and sustained release following an initial burst | Drug Release at Zero Order Mass/Day ([2]; block 0.59 ± 0.03 mm, SVF): 126.68 ± 10.25 µg/day | Drug Release at Zero Order Percent/Day ([2]; block 0.59 ± 0.03 mm, SVF): 6.17 ± 0.52 Percent/Day | Drug Release at Zero Order Mass/Day ([2]; block 1.17 ± 0.05 mm, SVF): 192.13 ± 8.10 µg/day | Drug Release at Zero Order Percent/Day ([2]; block 1.17 ± 0.05 mm, SVF): 4.45 ± 0.09 Percent/Day | Drug Release at Zero Order Mass/Day ([2]; block 2.23 ± 0.07 mm, SVF): 194.66 ± 6.63 µg/day | Drug Release at Zero Order Percent/Day ([2]; block 2.23 ± 0.07 mm, SVF): 2.18 ± 0.03 Percent/Day | Drug Release at Zero Order Mass/Day ([2]; block 3.16 ± 0.06 mm, SVF): 197.57 ± 3.57 µg/day | Drug Release at Zero Order Percent/Day ([2]; block 3.16 ± 0.06 mm, SVF): 1.91 ± 0.03 Percent/Day | Drug Release at Zero Order Mass/Day ([2]; block 4.18 ± 0.04 mm, SVF): 219.83 ± 13.62 µg/day | Drug Release at Zero Order Percent/Day ([2]; block 4.18 ± 0.04 mm, SVF): 1.51 ± 0.09 Percent/Day | Drug Release at Zero Order Mass/Day ([2]; block 6.25 ± 0.08 mm, SVF): 269.93 ± 7.99 µg/day | Drug Release at Zero Order Percent/Day ([2]; block 6.25 ± 0.08 mm, SVF): 1.28 ± 0.04 Percent/Day | Drug Release at Zero Order Mass/Day ([2]; block 7.80 ± 0.09 mm, SVF): 296.76 ± 7.04 µg/day | Drug Release at Zero Order Percent/Day ([2]; block 7.80 ± 0.09 mm, SVF): 1.09 ± 0.03 Percent/Day | cumulative release ([2]; post-loaded Estring sections, in 4 days, burst release effect): 90% | percent burst release normalized by SSA ([2]; post-loaded SIL 30 blocks, all block distances, normalized by placebo SSA in SVF): around 10% | percent burst release plateau ([2]; post-loaded SIL 30 blocks, larger block distances, SVF, first 24 hrs): around 6% | cumulative release of the total ([2]; pre-loaded 1 wt. % 4 mm SIL 30 blocks, SVF, over 28 days): 48% | maximum loading achieved [3]: 13.6 mg β-estradiol/1000 mg of SIL30 3D CLIP printed IVR | [β-Estradiol] ([4]; Acetone, Original Solution (super saturated)): 5691 µg/mL | [β-Estradiol] ([4]; Acetone, Post-Loading Solution): 5512 ± 120 µg/mL | [β-Estradiol] ([4]; Chloroform, Original Solution (super saturated)): 2365 µg/mL | [β-Estradiol] ([4]; Chloroform, Post-Loading Solution): 1679 ± 308 µg/mL | [β-Estradiol] ([4]; Isopropyl Acetate, Original Solution (super saturated)): 4651 µg/mL | [β-Estradiol] ([4]; Isopropyl Acetate, Post-Loading Solution): 4404 ± 116 µg/mL | [β-Estradiol] ([4]; Methanol, Original Solution (super saturated)): 5467 µg/mL | [β-Estradiol] ([4]; Methanol, Post-Loading Solution): 5121 ± 178 µg/mL | β-Estradiol quantified in pre-loaded resin ([5]; pre-loaded SIL 30 resin, n=3): 10.7±0.5 μg/mg of resin | pre-loaded maximum ([5]; pre-loading in SIL 30 resin): 10 wt. % | release per day ([1]; geometrically complex SIL 30 IVRs loaded at 22 mg/mL in methanol 24 hrs, SVF, independent of unit cell design): approximately 2 mg/day | complete release ([1]; post-loaded Cyl-3.80 and HC-2.53 IVR designs (26-29 mg/IVR), SVF): 100% | release of API ([1]; preload and postload SIL30 IVRs, SVF 37° C., no API trapped in the device): 100% | Loading Efficiency [6, 7]: 19.1 ± 1.3% | Wt. % by Part Mass [6, 7]: 7.7 ± 0.2% | β-Estradiol Post Loaded [6, 7]: 70.4 ± 2.0 mg | Loading Efficiency [6, 8]: 20.6 ± 1.2% | Wt. % by Part Mass [6, 8]: 4.7 ± 0.3% | β-Estradiol Post Loaded [6, 8]: 41.0 ± 1.1 mg | Loading Efficiency [6, 9]: 17.3 ± 0.8% | Wt. % by Part Mass [6, 9]: 4.9 ± 0.1% | β-Estradiol Post Loaded [6, 9]: 42.9 ± 1.0 mg | Drug Loading [6, 10]: 2.06 ± 0.19 mg | Wt. % Loading [6, 10]: 1.70 ± 0.09 Wt. % | Drug Loading [6, 11]: 4.33 ± 0.15 mg | Wt. % Loading [6, 11]: 1.75 ± 0.05 Wt. % | Drug Loading [6, 12]: 7.80 ± 0.15 mg | Wt. % Loading [6, 12]: 1.74 ± 0.03 Wt. % | Drug Loading [6, 13]: 10.34 ± 0.19 mg | Wt. % Loading [6, 13]: 1.53 ± 0.03 Wt. % | Drug Loading [6, 14]: 14.55 ± 0.38 mg | Wt. % Loading [6, 14]: 1.54 ± 0.04 Wt. % | Drug Loading [6, 15]: 21.03 ± 0.68 mg | Wt. % Loading [6, 15]: 1.45 ± 0.11 Wt. % | Drug Loading [6, 16]: 27.22 ± 1.48 mg | Wt. % Loading [6, 16]: 1.43 ± 0.06 Wt. % | Total Drug per Block [6, 17]: 11.92 ± 0.47 mg | Wt. % of Drug [6, 17]: 9.05 ± 0.52 Wt. % | Total Drug per Block [6, 18]: 15.74 ± 1.28 mg | Wt. % of Drug [6, 18]: 6.91 ± 0.50 Wt. % | Total Drug per Block [6, 19]: 32.38 ± 2.47 mg | Wt. % of Drug [6, 19]: 7.40 ± 0.55 Wt. % | Total Drug per Block [6, 20]: 48.79 ± 2.09 mg | Wt. % of Drug [6, 20]: 7.52 ± 0.33 Wt. % | Total Drug per Block [6, 21]: 53.53 ± 2.11 mg | Wt. % of Drug [6, 21]: 6.21 ± 0.23 Wt. % | loading of 4 mm blocks ([6]; previous post-loading experiments, 4 mm SIL 30 blocks): 4-6 wt. % | Loading Efficiency [6, 22]: 17.3 ± 0.4% | Wt. % Loading [6, 22]: 4.8 ± 0.1% | Loading Efficiency [6, 23]: 17.9% | Wt. % Loading [6, 23]: 5.0% | Amount extracted [6, 24]: 42.3 mg | Loading Efficiency [6, 24]: 17.1% | Wt. % Loading [6, 24]: 4.9% | Amount extracted [6, 25]: 42.2 mg | Loading Efficiency [6, 25]: 17.1% | Wt. % Loading [6, 25]: 4.8% | Amount extracted [6, 26]: 41.8 mg | Loading Efficiency [6, 26]: 16.9% | Wt. % Loading [6, 26]: 4.7% | Amount extracted ([6]; successive loading, one 20 mL super saturated methanol solution, 24 hr, Loading Round 1): 44.3 mg

C#C[C@]1(O)CC[C@H]2[C@@H]3CCC4=CC(=O)CC[C@@H]4[C@H]3C(=C)C[C@@]21CC [ENG, etonogestrel]
duration of target release rates [1]: over 4 months

C#C[C@]1(O)CC[C@H]2[C@@H]3CCc4cc(O)ccc4[C@H]3CC[C@@]21C [EE, ethinylestradiol]
duration of target release rates [1]: over 4 months

Source: patent US20240335373A1, “Methods, Systems and Devices for Post-Fabrication Drug Loading” (THE UNIVERSITY OF NORTH CAROLINA AT CHAPEL HILL, priority 2020, published 2024)
